The list shows a part of the results. Small differences around the control level are noise.
Compound: Cc1nc(Nc2ncc(C(=O)Nc3c(C)cccc3Cl)s2)cc(N2CCN(CCO)CC2)n1 [dasatinib]
Test: log2 fold change of tryptic peptide abundance, ligand vs vehicle (limited proteolysis) (log2 ratio); higher = more trypsin-susceptible (destabilized)
Conditions: ligand concentration: 5 uM; sample: K562 cleared lysate

By UniProt entry, the sequences of proteins in these tests, tags left out. Where a name states a change or a piece, a line headed by the entry shows the natural chain unless it says otherwise.
UniProt Q9GZV4: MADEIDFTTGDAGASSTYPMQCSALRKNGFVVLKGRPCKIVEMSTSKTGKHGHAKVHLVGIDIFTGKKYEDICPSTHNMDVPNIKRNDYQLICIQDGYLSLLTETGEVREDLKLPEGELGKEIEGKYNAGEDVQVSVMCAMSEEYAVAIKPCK
UniProt Q9BYW2: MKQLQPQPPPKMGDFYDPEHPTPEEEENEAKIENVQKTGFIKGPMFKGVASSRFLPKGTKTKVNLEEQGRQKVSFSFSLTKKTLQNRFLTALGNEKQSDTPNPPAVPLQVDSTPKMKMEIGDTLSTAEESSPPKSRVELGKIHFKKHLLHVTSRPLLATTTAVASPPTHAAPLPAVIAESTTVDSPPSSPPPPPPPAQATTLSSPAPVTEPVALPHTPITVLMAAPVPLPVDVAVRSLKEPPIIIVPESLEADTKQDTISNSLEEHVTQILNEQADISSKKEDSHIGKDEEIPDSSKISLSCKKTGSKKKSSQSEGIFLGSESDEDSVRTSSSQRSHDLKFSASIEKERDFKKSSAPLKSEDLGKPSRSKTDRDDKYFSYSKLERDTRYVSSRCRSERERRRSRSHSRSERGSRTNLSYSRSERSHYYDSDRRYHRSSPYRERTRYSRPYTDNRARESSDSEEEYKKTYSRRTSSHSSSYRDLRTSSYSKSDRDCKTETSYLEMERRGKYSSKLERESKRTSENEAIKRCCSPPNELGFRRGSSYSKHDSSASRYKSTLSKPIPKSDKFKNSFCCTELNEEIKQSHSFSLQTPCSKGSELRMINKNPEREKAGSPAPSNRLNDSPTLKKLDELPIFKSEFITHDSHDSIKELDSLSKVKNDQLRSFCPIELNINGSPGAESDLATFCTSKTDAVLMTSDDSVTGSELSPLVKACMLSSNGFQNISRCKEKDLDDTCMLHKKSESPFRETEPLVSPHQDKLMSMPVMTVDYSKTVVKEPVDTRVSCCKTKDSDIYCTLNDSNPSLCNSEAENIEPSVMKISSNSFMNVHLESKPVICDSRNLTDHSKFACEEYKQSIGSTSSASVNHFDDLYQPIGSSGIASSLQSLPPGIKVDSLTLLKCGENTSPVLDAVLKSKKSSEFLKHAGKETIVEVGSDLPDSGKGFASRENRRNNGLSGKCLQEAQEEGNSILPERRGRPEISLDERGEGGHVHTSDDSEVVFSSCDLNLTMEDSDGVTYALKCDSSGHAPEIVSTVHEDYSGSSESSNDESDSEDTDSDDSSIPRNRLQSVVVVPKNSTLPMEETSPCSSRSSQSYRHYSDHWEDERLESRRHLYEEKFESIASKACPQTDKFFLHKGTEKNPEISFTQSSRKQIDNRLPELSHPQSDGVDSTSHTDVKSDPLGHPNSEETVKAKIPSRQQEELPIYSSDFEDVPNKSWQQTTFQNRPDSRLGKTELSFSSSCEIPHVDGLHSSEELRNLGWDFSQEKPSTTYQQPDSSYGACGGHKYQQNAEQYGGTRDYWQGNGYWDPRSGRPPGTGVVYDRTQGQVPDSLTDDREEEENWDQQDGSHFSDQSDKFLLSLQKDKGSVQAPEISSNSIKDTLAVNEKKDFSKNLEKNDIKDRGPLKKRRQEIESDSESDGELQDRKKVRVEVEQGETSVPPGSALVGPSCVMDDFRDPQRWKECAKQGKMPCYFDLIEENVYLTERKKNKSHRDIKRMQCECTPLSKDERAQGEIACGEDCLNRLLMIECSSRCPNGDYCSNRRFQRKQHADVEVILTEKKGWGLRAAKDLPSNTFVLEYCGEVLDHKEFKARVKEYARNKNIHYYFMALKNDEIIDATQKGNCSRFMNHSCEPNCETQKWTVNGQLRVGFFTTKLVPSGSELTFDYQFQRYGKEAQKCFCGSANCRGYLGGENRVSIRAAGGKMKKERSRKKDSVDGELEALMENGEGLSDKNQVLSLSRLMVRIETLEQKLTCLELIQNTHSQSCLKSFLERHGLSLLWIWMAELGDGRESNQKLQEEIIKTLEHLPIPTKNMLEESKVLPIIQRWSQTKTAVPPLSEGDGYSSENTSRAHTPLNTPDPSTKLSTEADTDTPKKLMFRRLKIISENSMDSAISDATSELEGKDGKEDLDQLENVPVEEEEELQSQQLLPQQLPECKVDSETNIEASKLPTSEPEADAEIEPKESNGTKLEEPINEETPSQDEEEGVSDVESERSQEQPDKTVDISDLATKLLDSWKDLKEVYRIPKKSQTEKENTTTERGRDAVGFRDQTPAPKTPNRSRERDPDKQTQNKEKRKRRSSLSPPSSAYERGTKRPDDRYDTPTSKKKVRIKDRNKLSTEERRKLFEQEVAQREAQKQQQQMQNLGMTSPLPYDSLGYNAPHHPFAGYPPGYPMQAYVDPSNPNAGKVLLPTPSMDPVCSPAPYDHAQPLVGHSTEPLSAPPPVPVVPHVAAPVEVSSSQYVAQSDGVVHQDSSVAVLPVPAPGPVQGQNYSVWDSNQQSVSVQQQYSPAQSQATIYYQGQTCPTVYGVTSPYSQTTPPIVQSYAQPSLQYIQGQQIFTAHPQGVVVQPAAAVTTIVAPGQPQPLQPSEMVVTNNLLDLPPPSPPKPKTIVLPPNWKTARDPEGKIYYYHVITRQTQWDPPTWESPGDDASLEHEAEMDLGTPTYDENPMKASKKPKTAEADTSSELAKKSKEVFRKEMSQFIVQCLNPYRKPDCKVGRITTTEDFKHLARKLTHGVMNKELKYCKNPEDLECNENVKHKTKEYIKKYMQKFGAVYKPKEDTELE
UniProt Q9BW71: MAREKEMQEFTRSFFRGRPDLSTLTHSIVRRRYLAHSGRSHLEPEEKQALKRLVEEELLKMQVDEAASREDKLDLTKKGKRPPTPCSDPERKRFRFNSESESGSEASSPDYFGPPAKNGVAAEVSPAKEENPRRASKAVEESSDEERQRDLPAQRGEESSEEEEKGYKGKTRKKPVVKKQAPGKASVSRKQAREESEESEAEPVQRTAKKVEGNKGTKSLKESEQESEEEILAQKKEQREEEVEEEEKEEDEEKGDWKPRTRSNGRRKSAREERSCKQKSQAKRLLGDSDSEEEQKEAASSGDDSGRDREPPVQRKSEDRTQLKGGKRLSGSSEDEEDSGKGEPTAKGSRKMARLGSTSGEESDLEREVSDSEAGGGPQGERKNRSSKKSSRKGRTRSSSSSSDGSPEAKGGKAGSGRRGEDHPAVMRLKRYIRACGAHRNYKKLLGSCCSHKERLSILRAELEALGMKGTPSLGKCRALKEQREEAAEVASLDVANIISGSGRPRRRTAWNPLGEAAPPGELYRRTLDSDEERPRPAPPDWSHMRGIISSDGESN
UniProt Q9GZN7, whole entry: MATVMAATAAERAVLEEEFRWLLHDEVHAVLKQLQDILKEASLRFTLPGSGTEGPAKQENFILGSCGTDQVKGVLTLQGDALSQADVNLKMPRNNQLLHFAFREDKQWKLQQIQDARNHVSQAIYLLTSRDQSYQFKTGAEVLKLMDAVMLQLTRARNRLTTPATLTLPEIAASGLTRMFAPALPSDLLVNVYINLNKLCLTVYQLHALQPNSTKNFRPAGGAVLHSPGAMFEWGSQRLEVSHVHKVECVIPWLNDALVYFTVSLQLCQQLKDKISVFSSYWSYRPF
UniProt Q9BXX2: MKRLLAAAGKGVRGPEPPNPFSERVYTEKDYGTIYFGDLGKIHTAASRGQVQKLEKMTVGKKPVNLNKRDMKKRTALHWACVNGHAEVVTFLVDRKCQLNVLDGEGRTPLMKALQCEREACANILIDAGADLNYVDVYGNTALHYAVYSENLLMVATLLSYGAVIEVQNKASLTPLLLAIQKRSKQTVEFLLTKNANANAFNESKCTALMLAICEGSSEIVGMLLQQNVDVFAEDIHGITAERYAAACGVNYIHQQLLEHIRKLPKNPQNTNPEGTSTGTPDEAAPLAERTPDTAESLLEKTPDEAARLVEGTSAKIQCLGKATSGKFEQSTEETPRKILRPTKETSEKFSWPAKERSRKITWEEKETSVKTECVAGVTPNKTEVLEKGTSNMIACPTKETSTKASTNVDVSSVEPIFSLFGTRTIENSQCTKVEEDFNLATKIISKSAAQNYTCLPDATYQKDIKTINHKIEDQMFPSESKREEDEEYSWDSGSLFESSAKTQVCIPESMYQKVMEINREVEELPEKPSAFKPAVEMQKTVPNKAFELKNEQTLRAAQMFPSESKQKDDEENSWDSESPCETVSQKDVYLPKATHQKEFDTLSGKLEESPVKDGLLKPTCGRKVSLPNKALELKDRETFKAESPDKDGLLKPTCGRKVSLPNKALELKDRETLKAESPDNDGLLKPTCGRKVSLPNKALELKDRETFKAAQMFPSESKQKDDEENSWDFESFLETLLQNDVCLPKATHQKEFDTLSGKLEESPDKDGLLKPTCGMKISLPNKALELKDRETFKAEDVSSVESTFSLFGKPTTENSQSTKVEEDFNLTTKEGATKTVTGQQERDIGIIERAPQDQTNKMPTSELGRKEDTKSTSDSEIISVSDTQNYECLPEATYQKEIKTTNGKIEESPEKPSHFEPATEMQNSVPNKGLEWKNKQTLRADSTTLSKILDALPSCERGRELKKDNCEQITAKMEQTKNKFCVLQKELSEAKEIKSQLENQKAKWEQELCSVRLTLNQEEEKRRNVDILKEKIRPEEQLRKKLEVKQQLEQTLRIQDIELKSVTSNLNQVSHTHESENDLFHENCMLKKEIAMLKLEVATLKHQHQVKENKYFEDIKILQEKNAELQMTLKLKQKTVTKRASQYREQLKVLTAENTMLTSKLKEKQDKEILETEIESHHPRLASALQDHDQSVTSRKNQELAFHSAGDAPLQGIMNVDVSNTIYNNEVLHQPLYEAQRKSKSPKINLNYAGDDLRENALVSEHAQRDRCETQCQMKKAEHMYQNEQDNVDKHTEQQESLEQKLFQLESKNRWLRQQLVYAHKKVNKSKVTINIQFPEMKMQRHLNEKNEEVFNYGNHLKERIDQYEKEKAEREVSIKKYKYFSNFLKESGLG
UniProt Q9H0U4: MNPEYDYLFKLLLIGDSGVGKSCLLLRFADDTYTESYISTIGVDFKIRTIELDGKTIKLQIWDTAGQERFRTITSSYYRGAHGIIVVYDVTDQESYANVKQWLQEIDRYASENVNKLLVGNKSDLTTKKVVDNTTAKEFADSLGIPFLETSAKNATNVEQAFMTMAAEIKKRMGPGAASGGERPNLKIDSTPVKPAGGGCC
UniProt Q9BXV9: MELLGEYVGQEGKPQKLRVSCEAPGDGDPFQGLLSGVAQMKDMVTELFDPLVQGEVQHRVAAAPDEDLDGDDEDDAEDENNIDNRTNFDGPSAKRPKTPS
UniProt Q9GZM8: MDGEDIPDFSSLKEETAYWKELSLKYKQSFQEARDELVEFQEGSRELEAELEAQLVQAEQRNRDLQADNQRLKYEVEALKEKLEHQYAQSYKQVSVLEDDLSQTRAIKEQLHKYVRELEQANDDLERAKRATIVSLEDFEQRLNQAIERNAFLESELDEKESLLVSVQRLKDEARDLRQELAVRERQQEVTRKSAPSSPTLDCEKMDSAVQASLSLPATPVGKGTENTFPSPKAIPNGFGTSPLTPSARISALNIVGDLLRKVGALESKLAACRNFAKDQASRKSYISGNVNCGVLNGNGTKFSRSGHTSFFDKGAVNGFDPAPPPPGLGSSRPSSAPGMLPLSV
UniProt Q9BXL5: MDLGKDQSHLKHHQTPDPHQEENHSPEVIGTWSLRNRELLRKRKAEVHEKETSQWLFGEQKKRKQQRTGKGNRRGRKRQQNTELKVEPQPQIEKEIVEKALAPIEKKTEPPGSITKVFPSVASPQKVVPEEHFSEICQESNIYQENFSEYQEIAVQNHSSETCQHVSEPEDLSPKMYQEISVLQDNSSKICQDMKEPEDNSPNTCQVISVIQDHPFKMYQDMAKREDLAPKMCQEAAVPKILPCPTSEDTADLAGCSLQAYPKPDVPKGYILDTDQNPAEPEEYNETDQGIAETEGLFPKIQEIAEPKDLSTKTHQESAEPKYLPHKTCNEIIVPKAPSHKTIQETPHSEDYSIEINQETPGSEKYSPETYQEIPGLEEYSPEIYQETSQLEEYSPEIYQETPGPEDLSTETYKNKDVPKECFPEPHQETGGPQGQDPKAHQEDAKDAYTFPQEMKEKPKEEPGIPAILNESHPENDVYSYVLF
UniProt Q9BVI4: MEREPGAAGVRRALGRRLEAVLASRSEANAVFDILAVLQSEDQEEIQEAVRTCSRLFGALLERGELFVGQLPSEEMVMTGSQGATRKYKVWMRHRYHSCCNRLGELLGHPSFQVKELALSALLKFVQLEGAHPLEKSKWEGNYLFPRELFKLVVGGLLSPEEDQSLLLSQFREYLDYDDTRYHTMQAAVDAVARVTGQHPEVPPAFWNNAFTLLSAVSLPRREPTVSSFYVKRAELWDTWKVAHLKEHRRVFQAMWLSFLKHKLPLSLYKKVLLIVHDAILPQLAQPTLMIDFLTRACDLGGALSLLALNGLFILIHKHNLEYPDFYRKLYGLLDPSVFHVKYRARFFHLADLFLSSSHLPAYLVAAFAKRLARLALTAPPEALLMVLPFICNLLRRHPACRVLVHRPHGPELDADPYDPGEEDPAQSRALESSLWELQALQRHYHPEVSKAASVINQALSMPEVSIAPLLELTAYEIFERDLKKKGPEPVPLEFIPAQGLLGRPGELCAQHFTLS

| Target | log2 fold change |
| --- | --- |
| GTPBP2 (peptide sequence: VGADITVLR, peptide start residue: 134) (UniProt Q9BX10) | 0.197 |
| HDAC8 (peptide sequence: RASMVHSLIEAYALHK, peptide start residue: 37) (UniProt Q9BY41) | 0.117 |
| KLC2 (peptide sequence: AVIQGLETLRGEHR, peptide start residue: 23) (UniProt Q9H0B6) | -0.314 |
| RSRP1 (peptide sequence: GIGVSSNGAKPELSEK, peptide start residue: 213) (UniProt Q9BUV0) | 0.386 |
| EIF5A2 (peptide sequence: KYEDICPSTHNMDVPNIKR, peptide start residue: 68) (UniProt Q9GZV4) | 0.0676 |
| HTATIP2 (peptide sequence: DKQMELLENK, peptide start residue: 219) (UniProt Q9BUP3) | -0.115 |
| YTHDF1 (peptide sequence: PTSWAAIASKPAKPQPK, peptide start residue: 231) (UniProt Q9BYJ9) | -0.329 |
| CARD6 (peptide sequence: ASWVMGRPFGSEQRPK, peptide start residue: 749) (UniProt Q9BX69) | -0.344 |
| UniProt Q9GZP4 (peptide sequence: HEVTICNYEASANPADHR, peptide start residue: 182) | 0.165 |
| REPIN1 (peptide sequence: IHTGEKPYPCKECGR, peptide start residue: 285) (UniProt Q9BWE0) | -0.588 |
| C11orf54 (peptide sequence: ETHSIGRD, peptide start residue: 308) (UniProt Q9H0W9) | 0.0311 |
| INTS2 (peptide sequence: SRSFTKHK, peptide start residue: 563) (UniProt Q9H0H0) | -0.31 |
| SARG (peptide sequence: KLPPNIVLK, peptide start residue: 300) (UniProt Q9BW04) | 0.479 |
| SETD2 (peptide sequence: NIHYYFMALKNDEIIDATQK, peptide start residue: 1601) (UniProt Q9BYW2) | 0.417 |
| IFIH1 (peptide sequence: YLISCFR, peptide start residue: 13) (UniProt Q9BYX4) | 0.111 |
| TOLLIP (peptide sequence: LRLGYAVYETPTAHNGAK, peptide start residue: 79) (UniProt Q9H0E2) | 0.27 |
| HIRIP3 (peptide sequence: TAWNPLGEAAPPGELYRR, peptide start residue: 509) (UniProt Q9BW71) | -0.343 |
| UniProt Q9C0E8 (peptide sequence: DSSAPGGPPER, peptide start residue: 200) | -0.0632 |
| POLR2J3 (peptide sequence: ITINKDTK, peptide start residue: 19) (UniProt Q9H1A7) | 0.0985 |

| Target | log2 fold change |
| --- | --- |
| SIL1 (peptide sequence: VLQTLGVLLTTCRDR, peptide start residue: 397) (UniProt Q9H173) | 0.311 |
| ROGDI (peptide sequence: NFRPAGGAVLHSPGAMFEWGSQR, peptide start residue: 216) (UniProt Q9GZN7) | 0.313 |
| ANKRD30B (peptide sequence: LLAAAGK, peptide start residue: 4) (UniProt Q9BXX2) | 0.0476 |
| UniProt Q9H0M5 (peptide sequence: THMGEKPYECKDCGK, peptide start residue: 725) | 0.29 |
| UniProt Q9GZN2 (peptide sequence: YNAYPSEQEK, peptide start residue: 188) | 0.0537 |
| RAB1B (peptide sequence: MGPGAASGGERPNLK, peptide start residue: 173) (UniProt Q9H0U4) | -0.058 |
| UniProt Q9BXV9 (peptide sequence: TNFDGPSAK, peptide start residue: 86) | 0.0331 |
| WNK3 (peptide sequence: FKEEAEMLK, peptide start residue: 265) (UniProt Q9BYP7) | -0.198 |
| RPAP1 (peptide sequence: SIFAQEIAAR, peptide start residue: 150) (UniProt Q9BWH6) | -0.0908 |
| NDEL1 (peptide sequence: SGHTSFFDK, peptide start residue: 306) (UniProt Q9GZM8) | -0.345 |
| UniProt Q9H0R1 (peptide sequence: ALLFELR, peptide start residue: 54) | -0.126 |
| BRD8 (peptide sequence: NIENGLIR, peptide start residue: 760) (UniProt Q9H0E9) | -0.327 |
| TRIM4 (peptide sequence: HPSAPAALRPNWALAR, peptide start residue: 54) (UniProt Q9C037) | -0.0112 |
| HEMGN (peptide sequence: MYQDMAKR, peptide start residue: 218) (UniProt Q9BXL5) | -0.13 |
| NOC4L (peptide sequence: REPTVSSFYVK, peptide start residue: 222) (UniProt Q9BVI4) | 0.253 |
| UNK (peptide sequence: DALEVQVK, peptide start residue: 704) (UniProt Q9C0B0) | -0.236 |
| UniProt Q9BYU1 (peptide sequence: FSAIQMQLK, peptide start residue: 219) | -0.0257 |
| KATNBL1 (peptide sequence: DVDAYLLQLH, peptide start residue: 295) (UniProt Q9H079) | 0.349 |

Random excerpt: two records from the list.

| Target | log2 fold change |
| --- | --- |
| NDEL1 (peptide sequence: SGHTSFFDK, peptide start residue: 306) (UniProt Q9GZM8) | -0.345 |
| UniProt Q9H0M5 (peptide sequence: THMGEKPYECKDCGK, peptide start residue: 725) | 0.29 |
